{"source": "paper PMC8068864", "biological_target": "Myosin phosphatase rho-interacting protein (MPRIP) (human (endogenous in HeLa)) (UniProt Q6WCQ1)", "assay": "co-IP; 1 mg HeLa nuclear lysate with 2 µg anti-MPRIP antibody at 4 °C overnight, G-protein magnetic beads 1 h at 4 °C, 5 washes (150 mM NaCl, 1.0% NP-40, 50 mM Tris pH 7.4, 1 mM DTT), Western blot; control non-specific rabbit IgG", "note": "Results are given in words; binding and its absence hold for the method and conditions named. Binding seen in cells or lysates may run through a third protein. Some entries that bind do so weakly or less than the wild type."}
{"substance": "MYO1C (unconventional myosin; Nuclear Myosin 1 is an isoform of it) (from UniProt O00159-3 1-1044)", "values": [{"measurement": "binding", "result": "binds"}]}
